Results: patent US20080064730A1, “Azine Compounds for Combating Animal Pests” (BASF Aktiengesellschaft, priority 2004, published 2008)
Some of these results come from one statement about several compounds together. For some assays here: For at least one compound, name, drawing or mass did not settle the structure.

Tests used:
Type in all cases: in vivo
[1] = system: Cotton Aphid (Aphis Gossypii); assay: Cotton aphid test on dipped cotton cotyledons; details: 300 ppm, after 5 days
Experimental: (§1) • The soybean bean cyst nematode culture was maintained in a greenhouse and soybean eggs and J2 larvae were obtained for testing by dislodging soybean cysts from the roots with a sieve. The cysts were broken to release the eggs and the eggs were maintained in water. The eggs hatched after 5-7 days at 28° C. To microtiter plates containing about 150 μg of compound, 80:20 acetone was added to each well and the solution was mixed to obtain the desired compound concentration. The nematode solution was added to the plate. The plates were then sealed and placed in an incubator at 27° C. and 50% (+/−2%) relative humidity. […] II Activity Against Insects II.1 Cotton Aphid (Aphis Gossypii) • The active compounds were formulated in 50:50 acetone:water and 100 ppm Kinetics surfactant. • Cotton plants at the cotyledon stage (one plant per pot) were infested by placing a heavily infested leaf from the main colony on top of each cotyledon. The aphids were allowed to transfer to the host plant overnight, and the leaf used to transfer the aphids was removed. The cotyledons were dipped in the test solution and allowed to dry. […] II.2 Green Peach Aphid (Myzus Persicae) • The active compounds were formulated in 50:50 acetone:water and 100 ppm Kinetic® surfactant. • Pepper plants in the 2nd leaf-pair stage (variety ‘California Wonder’) were infested with approximately 40 laboratory-reared aphids by placing infested leaf sections on top of the test plants. The leaf sections were removed after 24 hr. The leaves of the intact plants were dipped into gradient solutions of the test compound and allowed to dry. Test plants were maintained under fluorescent light (24 hour photoperiod) at about 25° C. and 20-40% relative humidity. […] II.3 Bean Aphid (Aphis Fabae) • The active compounds were formulated in 50:50 acetone:water and 100 ppm Kinetics surfactant. • Nasturtium plants grown in Metro mix in the 1st leaf-pair stage (variety ‘Mixed Jewle’) were infested with approximately 2-30 laboratory-reared aphids by placing infested cut plants on top of the test plants. The cut plants were removed after 24 hr. Each plant was dipped into the test solution to provide complete coverage of the foliage, stem, protruding seed surface and surrounding cube surface and allowed to dry in the fume hood. The treated plants were kept at about 25° C. with continuous fluorescent light. […] II.4 Silverleaf Whitefly (Bemisia Argentifolii) • The active compounds were formulated in 50:50 acetone:water and 100 ppm Kinetics surfactant. • Selected cotton plants were grown to the cotyledon state (one plant per pot). The cotyledons were dipped into the test solution to provide complete coverage of the foliage and placed in a well-vented area to dry. Each pot with treated seedling was placed in a plastic cup and 10 to 12 whitefly adults (approximately 3-5 day old) were introduced. The insects were collected using an aspirator and an 0.6 cm, non-toxic Tygon® tubing (R-3603) connected to a barrier pipette-tip. The tip, containing the collected insects, was then gently inserted into the soil containing the treated plant, allowing Insects to crawl out of the tip to reach the foliage for feeding. The cups were covered with a re-usable screened lid (150 micron mesh polyester screen PeCap from Tetko Inc). Test plants were maintained in the holding room at about 25° C. and 20-40% relative humidity for 3 days avoiding direct exposure to the fluorescent light (24 hour photoperiod) to prevent trapping of heat inside the cup. […] II.5 Orchid Thrips (Dichromothrips Corbetti) • Dichromothrips corbetti adults used for bioassay were obtained from a colony maintained continuously under laboratory conditions. For testing purposes, the test compound was diluted to a concentration of 500 ppm (wt compound: vol diluent) in a 1:1 mixture of acetone:water, plus 0.01% Kinetics surfactant. • Thrips potency of each compound was evaluated by using a floral-immersion technique. Plastic petri dishes were used as test arenas. […]

[2] = system: Green Peach Aphid (Myzus Persicae); assay: Green peach aphid test on dipped pepper plants; details: 300 ppm; pepper plant leaves dipped; after 5 days
Experimental: as §1

[3] = system: Root-Knot Nematode (Meloidogyne incognita); assay: Root-knot nematode microtiter plate mortality test; details: 100 ppm; after 72 hours; J2 nematodes; immobility regarded as mortality
Experimental: • Test compounds were prepared and formulated into aqueous formulations using acetone. The formulations were tested using root knot nematode (2nd instar) and soybean cyst nematode (2nd instar) as target species. I.1 Test Procedures for Root-Knot Nematode (Meloidogyne incognita): • Tomato plants (var. Bonny Best) were grown in the greenhouse in plastic tubs (4 to 6 plants per tub). The plants and soil (a 50:50 mixture of sand and “New Egypt” sandy loam) were infested with M. incognita J2 (to establish the “in-house” colony, M. incognita J2 were initially acquired from Auburn University). The plants were kept pruned and were used on an “as needed” basis. The tomato plants were kept in the cylinder containing hydroponic solution and aerated until the nematodes were no longer present in the solution (usually about 60 days). The cultures were checked daily by eluting a small volume (approximately 20 ml) from the bottom of a funnel attached to the cylinder into a small crystallizing dish and observed using a binocular dissecting scope. If needed for testing, the nematodes were cleaned and concentrated by pouring the culture solution through a sieve for cleaning and a sieve for concentrating. The nematodes were then resuspended in water to a concentration of approximately 20 to 50 nematodes per 50 μl. These were counted by putting 25 μl of the nematode solution into a well of an unused well of an assay plate. The total was then multiplied by 2 for a final total of nematodes per 50 μl of solution. To microtiter plates containing about 1.0 mg of compound, 80:20 acetone was added to each well and the solution was mixed to obtain the desired compound concentration. The nematode solution was added to each plate. The plates were then sealed and they were placed in an incubator at 27° C. and 50% (+/−2%) relative humidity. After 72 hours, the population mortality was read, whereby immobility of nematodes was regarded as mortality.

[4] = system: Orchid Thrips (Dichromothrips Corbetti); assay: Orchid thrips floral-immersion test; details: 500 ppm; orchid flowers dipped; adult thrips; after 4 days
[5] = system: Soybean Cyst Nematode (Heterodera Glycine); assay: Soybean cyst nematode microtiter plate mortality test; details: 100 ppm; after 72 hours; J2 larvae; immobility regarded as mortality
Experimental: I.2 Test Procedures for Soybean Cyst Nematode (Heterodera Glycine):
• The soybean bean cyst nematode culture was maintained in a greenhouse and soybean eggs and J2 larvae were obtained for testing by dislodging soybean cysts from the roots with a sieve. The cysts were broken to release the eggs and the eggs were maintained in water. The eggs hatched after 5-7 days at 28° C. To microtiter plates containing about 150 μg of compound, 80:20 acetone was added to each well and the solution was mixed to obtain the desired compound concentration. The nematode solution was added to the plate. The plates were then sealed and placed in an incubator at 27° C. and 50% (+/−2%) relative humidity. […] II Activity Against Insects II.1 Cotton Aphid (Aphis Gossypii) • The active compounds were formulated in 50:50 acetone:water and 100 ppm Kinetics surfactant. • Cotton plants at the cotyledon stage (one plant per pot) were infested by placing a heavily infested leaf from the main colony on top of each cotyledon. The aphids were allowed to transfer to the host plant overnight, and the leaf used to transfer the aphids was removed. The cotyledons were dipped in the test solution and allowed to dry. […] II.2 Green Peach Aphid (Myzus Persicae) • The active compounds were formulated in 50:50 acetone:water and 100 ppm Kinetic® surfactant. • Pepper plants in the 2nd leaf-pair stage (variety ‘California Wonder’) were infested with approximately 40 laboratory-reared aphids by placing infested leaf sections on top of the test plants. The leaf sections were removed after 24 hr. The leaves of the intact plants were dipped into gradient solutions of the test compound and allowed to dry. Test plants were maintained under fluorescent light (24 hour photoperiod) at about 25° C. and 20-40% relative humidity. […] II.3 Bean Aphid (Aphis Fabae) • The active compounds were formulated in 50:50 acetone:water and 100 ppm Kinetics surfactant. • Nasturtium plants grown in Metro mix in the 1st leaf-pair stage (variety ‘Mixed Jewle’) were infested with approximately 2-30 laboratory-reared aphids by placing infested cut plants on top of the test plants. The cut plants were removed after 24 hr. Each plant was dipped into the test solution to provide complete coverage of the foliage, stem, protruding seed surface and surrounding cube surface and allowed to dry in the fume hood. The treated plants were kept at about 25° C. with continuous fluorescent light. […] II.4 Silverleaf Whitefly (Bemisia Argentifolii) • The active compounds were formulated in 50:50 acetone:water and 100 ppm Kinetics surfactant. • Selected cotton plants were grown to the cotyledon state (one plant per pot). The cotyledons were dipped into the test solution to provide complete coverage of the foliage and placed in a well-vented area to dry. Each pot with treated seedling was placed in a plastic cup and 10 to 12 whitefly adults (approximately 3-5 day old) were introduced. The insects were collected using an aspirator and an 0.6 cm, non-toxic Tygon® tubing (R-3603) connected to a barrier pipette-tip. The tip, containing the collected insects, was then gently inserted into the soil containing the treated plant, allowing Insects to crawl out of the tip to reach the foliage for feeding. The cups were covered with a re-usable screened lid (150 micron mesh polyester screen PeCap from Tetko Inc). […]

SMILES: COC(=NN=CC(C)Cc1cccc(C(F)(F)F)c1)c1cccnc1 (centres unmarked) [Example 84]
- mortality in comparison with untreated controls [1]: over 75%

SMILES: CC(=NN=CC(F)Cc1ccccc1)c1cccs1 (centres unmarked) [Example 59]
- mortality in comparison with untreated controls [2]: over 75%

SMILES: CSC(=NN=CC(C)Cc1ccccc1)c1ccc(C)s1 (centres unmarked) [Example 24]
- mortality in comparison with untreated controls [1]: over 75%

SMILES: CCSC(=NN=CC(C)Cc1ccccc1)c1sccc1C (centres unmarked) [Example 73]
- mortality compared to untreated controls [3]: over 95%

SMILES: CCSC(=NN=CCCc1ccccc1)c1cccs1 [Example 51]
- mortality in comparison with untreated controls [1]: over 75%

SMILES: CC(C=NN=C(Cl)c1ccc(Cl)nc1)Cc1ccccc1 (centres unmarked) [Example 28]
- mortality in comparison with untreated controls [2]: over 75%

SMILES: CC(C=NN=C(Cl)c1cccs1)Cc1ccccc1 (centres unmarked) [Example 17]
- mortality in comparison with untreated controls [2]: over 75%

SMILES: Cc1c(C=NN=C(Cl)c2cccs2)sc2ccccc12 [Example 6]
- mortality compared to untreated controls [3]: over 95%

SMILES: CC(C=NN=C(Cl)Cc1cccs1)Cc1ccccc1 (centres unmarked) [Example 85]
- mortality in comparison with untreated controls [2]: over 75%

SMILES: C/C(=N/N=CC(C)Cc1ccccc1)c1cccs1 (centres unmarked) [Example 56]
- mortality compared to untreated controls [3]: over 95%
- mortality in comparison with untreated controls [4]: over 95%

SMILES: Cc1ccsc1C(=NN=CC(C)Cc1ccccc1)SCC(F)(F)F (centres unmarked) [Example 70]
- mortality compared to untreated controls [3]: over 95%

SMILES: CSC(=NN=CCCc1ccccc1)c1cccs1 [Example 42]
- mortality in comparison with untreated controls [1]: over 75%

SMILES: CCSC(=NN=CC(C)Cc1ccccc1)c1ccc(C)s1 (centres unmarked) [Example 65]
- mortality in comparison with untreated controls [1]: over 75%

SMILES: CC(C=NN=C(Cl)c1cccs1)Cc1cccc(OC(F)F)c1 (centres unmarked) [Example 33]
- mortality in comparison with untreated controls [1]: over 75%

SMILES: Cc1ccc(C(Cl)=NN=CC(C)Cc2ccccc2)s1 (centres unmarked) [Example 63]
- mortality in comparison with untreated controls [2]: over 75%

SMILES: COC(=NN=CC(C)Cc1ccccc1)c1cccs1 (centres unmarked) [Example 38]
- mortality in comparison with untreated controls [2]: over 75%

SMILES: CSC(=NN=CC(C)Cc1ccccc1)c1cccnc1 (centres unmarked) [Example 80]
- mortality in comparison with untreated controls [2]: over 75%

SMILES: CS(=O)(=O)C(=NN=Cc1cc2ccccc2o1)c1cccs1 [Example 3]
- mortality compared to untreated controls [3]: over 95%
- mortality compared to untreated controls [5]: over 95%

SMILES: CC(C=NN=C(Cl)c1cccnc1)Cc1cccc(C(F)(F)F)c1 (centres unmarked) [Example 78]
- mortality in comparison with untreated controls [1]: over 75%

SMILES: CCSC(=NN=CCCc1ccccc1)c1cccs1 [Example 52]
- mortality compared to untreated controls [5]: over 95%

SMILES: CCSC(=NN=CC(C)Cc1ccccc1)c1sccc1C (centres unmarked) [Example 72]
- mortality in comparison with untreated controls [1]: over 75%

SMILES: CCOC(=NN=CC(C)Cc1ccccc1)c1cccs1 (centres unmarked) [Example 37]
- mortality in comparison with untreated controls [2]: over 75%

SMILES: CC(C=NN=C(SC(C)(C)C)c1cccs1)Cc1ccccc1 (centres unmarked) [Example 43]
- mortality in comparison with untreated controls [1]: over 75%

SMILES: CSC(=NN=CC(C)Cc1cccc(C(F)(F)F)c1)c1cccs1 (centres unmarked) [Example 54]
- mortality compared to untreated controls [3]: over 95%
- mortality compared to untreated controls [5]: over 95%

SMILES: CSC(=NN=CC(C)Cc1cccc(OC(F)F)c1)c1cccs1 (centres unmarked) [Example 46]
- mortality in comparison with untreated controls [1]: over 75%

SMILES: COC(=NN=CC(C)Cc1ccccc1)c1sccc1C (centres unmarked) [Example 69]
- mortality in comparison with untreated controls [2]: over 75%
- mortality in comparison with untreated controls [4]: over 95%

SMILES: CC(C=NN=C(c1cccs1)S(C)(=O)=O)Cc1ccccc1 (centres unmarked) [Example 13]
- mortality in comparison with untreated controls [4]: over 95%

SMILES: COC(=NN=Cc1cc2ccccc2o1)c1cccnc1 [Example 10]
- mortality in comparison with untreated controls [1]: over 75%

SMILES: CC(C=NN=C(Cl)c1ccc(Cl)s1)Cc1ccccc1 (centres unmarked) [Example 61]
- mortality in comparison with untreated controls [2]: over 75%

SMILES: CC(C=NN=C(Cl)c1cccs1)Cc1cccc(C(F)(F)F)c1 (centres unmarked) [Example 34]
- mortality compared to untreated controls [5]: over 95%

SMILES: CC(C=NN=C(Cl)c1cccs1)Cc1ccc(F)c(C(F)(F)F)c1 (centres unmarked) [Example 35]
- mortality in comparison with untreated controls [1]: over 75%

SMILES: CC(C=NN=C(Cl)c1cccs1)Cc1ccc(F)cc1 (centres unmarked) [Example 14]
- mortality compared to untreated controls [3]: over 95%
- mortality in comparison with untreated controls [2]: over 75%

SMILES: COC(=NN=CC(C)Cc1ccccc1)c1ccc(C)s1 (centres unmarked) [Example 64]
- mortality in comparison with untreated controls [4]: over 95%
